Some results were stated once for a whole list of compounds, not compound by compound.
molecular target: T1, RIPK2 (Homo sapiens, UniProt O43353); assay: Fluorescent polarization based binding assay at the ATP binding pocket of RIPK2; conditions: FP competition with fluorescently labeled ATP competitive ligand (5 nM); full length FLAG His tagged RIPK2; mean of a minimum of 2 experiments
T1 construct: Full length FLAG His tagged RIPK2 was purified from a Baculovirus expression system; FLAG (N); 6His (N); made in house; host or cells: Spodoptera frugiperda (Sf9) insect cells, baculovirus
Text: A fluorescent polarization based binding assay was developed to quantitate interaction of novel test compounds at the ATP binding pocket of RIPK2, by competition with a fluorescently labeled ATP competitive ligand. Full length FLAG His tagged RIPK2 was purified from a Baculovirus expression system and was used at a final assay concentration of twice the KDapparent. A fluorescent labeled ligand (5-({[2-({[3-({4-[(5-hydroxy-2-methylphenyl)amino]-2-pyrimidinyl}amino)phenyl]carbonyl}amino)ethyl]amino}carbonyl)-2-(6-hydroxy-3-oxo-3H-xanthen-9-yl)benzoic acid, prepared as described below) was used at a final assay concentration of 5 nM. Both the enzyme and ligand were prepared in solutions in 50 mM HEPES pH7.5, 150 mM NaCl, 10 mM MgCl2, 1 mM DTT, and 1 mM CHAPS. Test compounds were prepared in 100% DMSO and 100 nL was dispensed to individual wells of a multiwell plate. Next, 5 ul RIPK2 was added to the test compounds at twice the final assay concentration, and incubated at room temperature for 10 minutes. Following the incubation, 5 ul of the fluorescent labeled ligand solution, was added to each reaction, at twice the final assay concentration, and incubated at room temperature for at least 10 minutes. Finally, samples were read on an instrument capable of measuring fluorescent polarization. Test compound inhibition was expressed as percent (%) inhibition of internal assay controls.
For concentration response experiments, normalized data were fit and pIC50 s determined using conventional techniques. For example, the following four parameter logistic equation may be used: y=A+((B−C))/(1+(10^x)/(10^C)^D), where: y is the % activity (% inhibition) at a specified compound concentration; A is the minimum % activity; B is the maximum % activity; C=log10(IC50); D=Hill slope; x=log10 (compound concentration [M]); and pIC50=(—C).
The pIC50s are averaged to determine a mean value, for a minimum of 2 experiments.
Full-length human RIPK2 (receptor-interacting serine-threonine kinase 2) cDNA was purchased from Invitrogen (Carlsbad, Calif., USA, Clone ID:IOH6368, RIPK2-pENTR 221). Gateway® LR cloning was used to site-specifically recombine RIPK2 downstream to an N-terminal FLAG-6His contained within the destination vector pDEST8-FLAG-His6 according to the protocol described by Invitrogen. Transfection into Spodoptera frugiperda(Sf9) insect cells was performed using Cellfectin® (Invitrogen), according to the manufacturer's protocol.

Protein sequences, listed by entry. Tags and fused reporters are not part of them.
UniProt O43353, whole entry: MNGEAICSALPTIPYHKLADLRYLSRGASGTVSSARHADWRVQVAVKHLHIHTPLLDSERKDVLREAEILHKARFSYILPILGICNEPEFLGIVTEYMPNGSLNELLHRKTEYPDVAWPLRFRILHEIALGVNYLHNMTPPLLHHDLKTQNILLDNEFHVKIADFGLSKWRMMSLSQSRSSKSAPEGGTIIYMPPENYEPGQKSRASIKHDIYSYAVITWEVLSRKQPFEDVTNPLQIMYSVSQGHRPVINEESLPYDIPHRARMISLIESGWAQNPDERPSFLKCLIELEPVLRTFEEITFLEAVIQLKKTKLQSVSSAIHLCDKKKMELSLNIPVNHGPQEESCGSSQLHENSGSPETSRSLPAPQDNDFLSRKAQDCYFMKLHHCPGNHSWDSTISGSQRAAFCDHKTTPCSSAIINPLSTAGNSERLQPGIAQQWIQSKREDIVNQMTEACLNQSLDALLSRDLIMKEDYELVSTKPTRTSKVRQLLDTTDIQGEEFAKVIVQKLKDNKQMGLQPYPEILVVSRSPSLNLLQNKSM

| SMILES | mean pIC50 |
| --- | --- |
| COc1ccc2[nH]nc(Nc3ccnc(Nc4cccc(S(=O)(=O)N5CCCC5)c4)n3)c2c1.O=C(O)C(F)(F)F [Example 36, N4-[5-(methyloxy)-1H-indazol-3-yl]-N2-[3-(1-pyrrolidinylsulfonyl)phenyl]-2,4-pyrimidinediamine trifluoroacetate] | greater than or equal to 6.0 |
| CN(C)C(c1cccc(Nc2nccc(Nc3n[nH]c4ccc(F)cc34)n2)c1)C(F)(F)F.O=C(O)C(F)(F)F (stereo not shown) [Example 37, N2-{3-[1-(dimethylamino)-2,2,2-trifluoroethyl]phenyl}-N4-(5-fluoro-1H-indazol-3-yl)-2,4-pyrimidinediamine trifluoroacetate] | greater than or equal to 6.0 |
| CC(C)(C#N)c1cccc(Nc2nccc(Nc3n[nH]c4ccc(F)cc34)n2)c1 [Example 38, 2-[3-({4-[(5-fluoro-1H-indazol-3-yl)amino]-2-pyrimidinyl}amino)phenyl]-2-methylpropane nitrile] | greater than or equal to 6.0 |
| CS(=O)(=O)c1cccc(Nc2nccc(Nc3n[nH]c4ccc(F)cc34)n2)c1 [Example 39, N4-(5-fluoro-1H-indazol-3-yl)-N2-[3-(methylsulfonyl)phenyl]-2,4-pyrimidinediamine] | greater than or equal to 6.0 |
| Fc1ccc2[nH]nc(Nc3ccnc(Nc4ccc5c(c4)OCCO5)n3)c2c1 [Example 40, N2-(2,3-dihydro-1,4-benzodioxin-6-yl)-N4-(5-fluoro-1H-indazol-3-yl)-2,4-pyrimidinediamine] | greater than or equal to 6.0 |
| Cc1ccc(Nc2nccc(Nc3n[nH]c4ccc(F)cc34)n2)cc1S(C)(=O)=O.O=C(O)C(F)(F)F [Example 41, N4-(5-fluoro-1H-indazol-3-yl)-N2-[4-methyl-3-(methylsulfonyl)phenyl]-2,4-pyrimidinediamine trifluoroacetate] | greater than or equal to 6.0 |
| CC(C)(CO)S(=O)(=O)c1cccc(Nc2nccc(Nc3n[nH]c4ccc(F)cc34)n2)c1 [Example 42, 2-{[3-({4-[(5-fluoro-1H-indazol-3-yl)amino]-2-pyrimidinyl}amino)phenyl]sulfonyl}-2-methyl-1-propanol] | greater than or equal to 6.0 |
| COc1cc(Nc2nccc(Nc3n[nH]c4ccc(F)cc34)n2)cc(OC)c1O [Example 43, 4-({4-[(5- FLUORO-1H- INDAZOL-3- YL)AMINO]-2- PYRIMIDINYL} AMINO)-2,6- BIS(METHYLOXY) PHENOL] | greater than or equal to 6.0 |
| Fc1ccc2[nH]nc(Nc3ccnc(Nc4ccc5cc[nH]c5c4)n3)c2c1 [Example 44, N4-(5-FLUORO- 1H-INDAZOL-3- YL)-N2-1H- INDOL-6-YL-2,4- PYRIMIDINE- DIAMINE] | greater than or equal to 6.0 |
| Fc1ccc2[nH]nc(Nc3ccnc(Nc4cccc5[nH]ccc45)n3)c2c1 [Example 45, N4-(5-FLUORO- 1H-INDAZOL-3- YL)-N2-1H- INDOL-4-YL-2,4- PYRIMIDINE- DIAMINE] | greater than or equal to 6.0 |
| CS(=O)(=O)n1ccc2ccc(Nc3nccc(Nc4n[nH]c5ccc(F)cc45)n3)cc21 [Example 46, N4-(5-FLUORO- 1H-INDAZOL-3- YL)-N2-[1- (METHYL- SULFONYL)-1H- INDOL-6-YL]-2,4- PYRIMIDINE- DIAMINE] | greater than or equal to 6.0 |
| Cc1c(Nc2nccc(Nc3n[nH]c4ccc(F)cc34)n2)cccc1S(C)(=O)=O [Example 47, N4-(5-fluoro-1H-indazol-3-yl)-N2-(2-methyl-3-(methylsulfonyl)phenyl]-2,4-pyrimidinediamine] | greater than or equal to 6.0 |
| CS(=O)(=O)n1ccc2cc(Nc3nccc(Nc4n[nH]c5ccc(F)cc45)n3)ccc21 [Example 48, N4-(5-FLUORO- 1H-INDAZOL-3- YL)-N2-[1- (METHYL- SULFONYL)-1H- INDOL-5-YL]-2,4- PYRIMIDINE- DIAMINE] | greater than or equal to 6.0 |
| Cc1ccc(Nc2nccc(Nc3n[nH]c4c(Cl)cccc34)n2)cc1S(C)(=O)=O [Example 49, N4-(7-CHLORO- 1H-INDAZOL-3- YL)-N2-[4- METHYL-3- (METHYL- SULFONYL) PHENYL]-2,4- PYRIMIDINE- DIAMINE] | greater than or equal to 6.0 |
| Cc1ccc(Nc2nccc(Nc3n[nH]c4c(C(F)(F)F)cccc34)n2)cc1S(C)(=O)=O [Example 50, N2-[4-methyl-3-(methylsulfonyl)phenyl]-N4-[7-(trifluoromethyl)-1H-indazol-3-yl]-2,4-pyrimidinediamine] | greater than or equal to 6.0 |
| Cc1cc(Nc2nccc(Nc3n[nH]c4ccc(F)cc34)n2)cc(S(C)(=O)=O)c1 [Example 51, N4-(5-FLUORO- 1H-INDAZOL-3- YL)-N2-[3- METHYL-5- (METHYL- SULFONYL) PHENYL]-2,4- PYRIMIDINE- DIAMINE] | greater than or equal to 6.0 |
| CS(=O)(=O)c1ccc(Nc2nccc(Nc3n[nH]c4ccc(F)cc34)n2)cc1 [Example 52, N4-(5-fluoro-1H-indazol-3-yl)-N2-[4-(methylsulfonyl)phenyl]-2,4-pyrimidinediamine] | greater than or equal to 6.0 |
| O=S(=O)(c1cccc(Nc2nccc(Nc3n[nH]c4ccc(F)cc34)n2)c1)N1CCOCC1 [Example 53, N4-(5-fluoro-1H-indazol-3-yl)-N2-[3-(4-morpholinylsulfonyl)phenyl]-2,4-pyrimidinediamine] | greater than or equal to 6.0 |
| CONS(=O)(=O)c1cccc(Nc2nccc(Nc3n[nH]c4ccc(F)cc34)n2)c1 [Example 54, 3-({4-[(5- FLUORO-1H- INDAZOL-3- YL)AMINO]-2- PYRIMIDINYL} AMINO)-N- (METHYLOXY) BENZENE SULFONAMIDE] | greater than or equal to 6.0 |
| CON(C)S(=O)(=O)c1cccc(Nc2nccc(Nc3n[nH]c4ccc(F)cc34)n2)c1 [Example 55, 3-({4-[(5- FLUORO-1H- INDAZOL-3- YL)AMINO]-2- PYRIMIDINYL} AMINO)-N- METHYL-N- (METHYLOXY) BENZENE SULFONAMIDE] | greater than or equal to 6.0 |
| CON(C)S(=O)(=O)c1cc(Nc2nccc(Nc3n[nH]c4ccc(F)cc34)n2)ccc1C [Example 56, 5-({4-[(5- FLUORO-1H- INDAZOL-3- YL)AMINO]-2- PYRIMIDINYL} AMINO)-N,2- DIMETHYL-N- (METHYLOXY) BENZENE SULFONAMIDE] | greater than or equal to 6.0 |
| CCOc1cc(Nc2nccc(Nc3n[nH]c4ccc(F)cc34)n2)cc(S(C)(=O)=O)c1 [Example 57, N2-[3- (ETHYLOXY)-5- (METHYL- SULFONYL) PHENYL]-N4-(5- FLUORO-1H- INDAZOL-3-YL)- 2,4-PYRIMIDINE- DIAMINE] | greater than or equal to 6.0 |
| CC(C)S(=O)(=O)c1cccc(Nc2nccc(Nc3n[nH]c4ccc(F)cc34)n2)c1 [Example 58, N4-(5-FLUORO- 1H-INDAZOL-3- YL)-N2-{3-[(1- METHYLETHYL) SULFONYL] PHENYL}-2,4- PYRIMIDINE- DIAMINE] | greater than or equal to 6.0 |
| Cc1cc(C)cc(Nc2nccc(Nc3n[nH]c4ccc(F)cc34)n2)c1 [Example 59, N2-(3,5-dimethylphenyl)-N4-(5-fluoro-1H-indazol-3-yl)-2,4-pyrimidinediamine] | greater than or equal to 6.0 |
| Cc1ccc(Nc2nccc(Nc3n[nH]c4ccc(F)cc34)n2)cc1S(=O)(=O)C(C)C.O=C(O)C(F)(F)F [Example 60, N4-(5-fluoro-1H-indazol-3-yl)-N2-{4-methyl-3-[(1-methylethyl)sulfonyl]phenyl}-2,4-pyrimidinediamine trifluoroacetate] | greater than or equal to 6.0 |
| Cc1ccc(Nc2nccc(Nc3n[nH]c4ccc(F)cc34)n2)cc1S(C)(=O)=O [Example 61, N4-(5-fluoro-1H-indazol-3-yl)-N2-[4-methyl-3-(methylsulfonyl)phenyl]-2,4-pyrimidinediamine] | greater than or equal to 6.0 |
| CCS(=O)(=O)c1cc(Nc2nccc(Nc3n[nH]c4ccc(F)cc34)n2)cc(OC)c1 [Example 64, N2-[3-(ETHYL SULFONYL)-5- (METHYLOXY) PHENYL]-N4-(5- FLUORO-1H- INDAZOL-3-YL)- 2,4-PYRIMIDINE- DIAMINE] | greater than or equal to 6.0 |
| CCOc1ccc(Nc2nccc(Nc3n[nH]c4ccc(F)cc34)n2)cc1S(=O)(=O)C(C)C [Example 65, N2-{4-(ethyloxy)-3-[(1-methylethyl)sulfonyl]phenyl}-N4-(5-fluoro-1H-indazol-3-yl)-2,4-pyrimidinediamine] | greater than or equal to 6.0 |

Source: patent US20130023532A1, “INDAZOLYL-PYRIMIDINES AS KINASE INHIBITORS” (priority 2010, published 2013)
